Weaker means in comparison with the reference protein, sequence or condition of that experiment. Where a protein sequence is shown, tags need not be part of it. For part of these data: Results from cells or extracts need not show a direct contact. For part of these data: No signal at the amounts used counts as a negative.
How the values were obtained:
[1] = target: T1, MISIIR (AMHR2) extracellular domain (UniProt Q16671); assay: pull-down; details: purified recombinant protein
T1 sequence (looked up, limits assumed): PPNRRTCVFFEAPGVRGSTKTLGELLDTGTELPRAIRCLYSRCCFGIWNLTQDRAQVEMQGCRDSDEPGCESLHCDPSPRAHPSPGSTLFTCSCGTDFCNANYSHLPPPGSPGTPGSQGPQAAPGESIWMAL

[2] = target: T2, MISIIR (AMHR2) on ovarian cancer cells (Homo sapiens) (UniProt Q16671); assay: binding assay; details: protein on the cell surface
T2 sequence (looked up, limits assumed): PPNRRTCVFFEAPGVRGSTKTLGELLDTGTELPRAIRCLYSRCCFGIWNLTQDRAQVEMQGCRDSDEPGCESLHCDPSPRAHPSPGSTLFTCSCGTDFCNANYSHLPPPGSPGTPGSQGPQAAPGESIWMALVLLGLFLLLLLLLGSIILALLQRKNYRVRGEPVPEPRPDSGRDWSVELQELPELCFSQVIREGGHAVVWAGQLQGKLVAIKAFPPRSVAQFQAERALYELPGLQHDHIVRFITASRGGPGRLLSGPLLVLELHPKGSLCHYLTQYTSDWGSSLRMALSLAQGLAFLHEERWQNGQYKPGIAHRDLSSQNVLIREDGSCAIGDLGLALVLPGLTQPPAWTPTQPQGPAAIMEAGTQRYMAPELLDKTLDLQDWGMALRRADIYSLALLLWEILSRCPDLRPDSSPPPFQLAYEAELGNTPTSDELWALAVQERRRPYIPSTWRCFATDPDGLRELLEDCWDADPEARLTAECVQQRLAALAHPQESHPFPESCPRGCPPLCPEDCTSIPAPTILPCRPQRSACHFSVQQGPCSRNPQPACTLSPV

Q: What does the source list for “GGGAGGACGAUGCGGCCAUACCGUGAAGCCUUGGCUGCAUCGGGAUUUUGGUCGGCAGACGACUCGCCCGA [Aptamer 3]”?
A: binding result ([1]; 2'-F pyrimidines (library chemistry), lower affinity than Aptamers 1 and 2, higher than Aptamer 8, no value in text, label: 32P (gamma-32P)): binds more weakly; binding result ([2]; 2'-F pyrimidines (library chemistry), 32P cell binding, 37 C 30 min, lower than Aptamers 1 and 2 on IGROV-1 and OVCAR-8, above Aptamer 8 on IGROV-1, label: 32P (gamma-32P)): binds more weakly

Q: Does “GGGAGGACGAUGCGGCGCGAAAGCCGAUUGGUGUGUCGUCUAUUAUCGUGUCGGGCAGACGACUCGCCCGA [Aptamer 1 (M1)]” bind ([2]; 2'-F pyrimidines (library chemistry), 32P cell binding, 37 C 30 min, high affinity on IGROV-1 and OVCAR-8, lower than Aptamer 2 on OVCA433, confocal binding and endocytosis in OVCAR-8, label: 32P (gamma-32P) or fluorophore for confocal)?
A: binds

Q: Does “GGGAGGACGAUGCGGCGUGUACGAGCCCAAUAGGGAUGUUAGACUACACGCGGGGCAGACGACUCGCCCGA [Aptamer 8 (aptRan, control)]” bind ([1]; control, lower affinity than Aptamers 1, 2 and 3, SEQ 77 printed with 5' T7 promoter sequence, label: 32P (gamma-32P) or fluorophore for confocal)?
A: binds more weakly

Q: Does “GGGAGGACGAUGCGGCGUGUACGAGCCCAAUAGGGAUGUUAGACUACACGCGGGGCAGACGACUCGCCCGA [Aptamer 8 (aptRan, control)]” bind ([2]; control, lowest binding on IGROV-1, no appreciable binding to OVCAR-8 by confocal, label: 32P (gamma-32P) or fluorophore for confocal)?
A: no binding

Q: Does “GGGAGGACGAUGCGGGAAGCACGUCCCGAGGUAUAUGUUUCGUAGUCGCUGUGGGCAGACGACUCGCCCGA [Aptamer 2 (M2)]” bind ([2]; 2'-F pyrimidines (library chemistry), 32P cell binding, 37 C 30 min, high affinity on IGROV-1, OVCAR-8 and OVCA433, confocal binding and endocytosis in OVCAR-8, label: 32P (gamma-32P) or fluorophore for confocal)?
A: binds

Reference: patent US20190071674
